Data reported in PubChem BioAssay AID2685 (National Center for Advancing Translational Sciences (NCATS), 2010).
About 2,100 (0.66%) of roughly 320,000 compounds were called active. This list was built around the results that the source calls inconclusive (neither active nor inactive); the mix of calls is not that of the screen. The call rests on the fitted dose curve; in most records, active means well fitted inhibition curve with a large enough effect in the signal ratio, with a control signal flat (not every such curve was filed as active); inconclusive means small, poorly fitted or top-dose-only effect, or effect the other way, or a change in a side signal; inactive means flat fitted curve, though single readings scatter; the % refers to the signal ratio. A potency beside an inconclusive call is a rough fit, not a confirmed value.
On the % scale 0 is the no-effect control and ±100 the full control effect; potency means the concentration at half of the fitted maximal effect.

Test: qHTS Assay for Lipid Storage Modulators in Drosophila S3 Cells
Settings: BODIPY lipid droplet fluorescence, 18-24 h, cells fed with added oleic acid; lipid storage change, negative = inhibition: at 46.1 µM (top of the series) unless noted
Method in brief: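 Drosophila S3 cells loaded with oleic acid (400 uM, as added) and compounds at several concentrations; lipid droplets imaged by 488-nm laser-scanning cytometry, 500–530 nm intensity and object ratio to cell channel. Percent activity normalized to 20 uM Triacsin C.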
In the case of `CCN(c1ccccc1)S(=O)(=O)c1ccc(OC)c(NC(=O)COc2ccc(C(C)=O)cc2)c1`, the Potency is reported as inconclusive: 3.26 µM [activator, partial curve]. With `O=C1CSc2nc3ccccc3n21` the Potency was inconclusive: 1.3 µM [activator, partial curve]. With `CCc1nc(SCC(=O)Nc2ccccc2OC)c2c(C)c(C)sc2n1` the Potency was inconclusive: 29.1 µM [falling, single point]. In the case of `O=c1c(-c2n[nH]c(=S)n2-c2ccccc2)cccn1Cc1cccc(Cl)c1`, the lipid storage change, negative = inhibition is reported as inconclusive: 12.4%. With `CN(CC(=O)Nc1ccc(F)c(F)c1F)C(=O)C1CCN(C(=O)Nc2ccccc2)CC1` the lipid storage change, negative = inhibition was inconclusive: -36.7%. In the case of `CSc1cccc(NC(=O)CCNC(=O)c2ccco2)c1`, the lipid storage change, negative = inhibition is reported as inconclusive: -65.6%. For `Cc1ccc(NC(=O)Cc2nnc(SCC(=O)Nc3nncs3)n2C)c(C)c1`, the Potency was inconclusive: 4.61 µM [activator, full curve]. In the case of `CN1CCN(C(=O)C2CCN(c3ncnc4c3nc3n4CCCCC3)CC2)CC1`, the lipid storage change, negative = inhibition is reported as inconclusive: -18.5%. For `O=c1[nH]c(N/N=C/c2ccccc2)nc2ccccc12`, the Potency was inconclusive: 20.6 µM [rising, single point]. With `CCCCNS(=O)(=O)/C=C/c1ccccc1` the lipid storage change, negative = inhibition was inconclusive: -9.55%. For `COc1ccc2nc(C)cc(N3CCN(S(=O)(=O)c4ccccc4F)CC3)c2c1`, the Potency was inconclusive: 3.26 µM [activator, single point]. With `CC(C)c1nc2sc3c(c2c(=O)o1)CCCC3` the lipid storage change, negative = inhibition was inconclusive: -42.7%. With `CC(C(=O)N1CCc2ccccc21)N1CCN(Cc2ccc(Cl)cc2)CC1` (stereo not given) the “outcome” value was “inactive [at 46.1 µM]”. In the case of `N#Cc1ccc(C(=O)NNC(=O)c2ccncc2)cc1`, the lipid storage change, negative = inhibition is reported as inconclusive: 6.34%. With `COc1ccc2c(c1)CC[C@@H]1[C@@H]2CC[C@]2(C)[C@@H](C(=O)O)C[C@@H]12` the lipid storage change, negative = inhibition was inconclusive: 11.4%. With `Cc1ccc(S(=O)(=O)N2CCN(CC(=O)NCC3(N4CCOCC4)CCCCC3)CC2)cc1` the lipid storage change, negative = inhibition was inconclusive: 0.938%. For `COc1ccc(CCNC(=O)CSc2nncs2)cc1`, the lipid storage change, negative = inhibition was inconclusive: -5.9%. With `COc1ccc(C(=O)N2CCN(c3ccccc3)CC2)cc1S(=O)(=O)N1CCCC1` the Potency was inconclusive: 25.9 µM [activator, single point]. In the case of `CCN(CC)CCCNC(=O)c1ccc2c(SCC(=O)O)c3c(nc2c1)CCC3`, the lipid storage change, negative = inhibition is reported as inconclusive: 2.98%. In the case of `CCCC(NS(=O)(=O)c1ccc(-c2ccc(=O)[nH]n2)s1)c1cccs1` (stereo not given), the lipid storage change, negative = inhibition is reported as inconclusive: -100%. With `Cc1cc(C)n2nc(SCC(=O)Nc3ccccc3)nc2n1` the lipid storage change, negative = inhibition was inconclusive: 107%. With `O=c1c2[nH]c3ccccc3c2ncn1Cc1ccccn1` the Potency was inconclusive: 0.103 µM [falling, full curve, poor fit]. For `Cc1cc(C(=O)CSc2nnc(-c3ccc(Cl)cc3)n2CC2CCCO2)c(C)n1C` (stereo not given), the lipid storage change, negative = inhibition was inconclusive: -43.6%. For `CC(C)NC(=O)CS(=O)(=O)c1ccccc1`, the lipid storage change, negative = inhibition was inconclusive: 18.8%. With `COC(CNC(=O)c1ccc(N2CCc3ccccc32)c([N+](=O)[O-])c1)OC` the Potency was active: 20.6 µM. With `Cn1c(=O)c2c(SCC(=O)NCc3ccco3)nc(CC(C)(C)C)nc2n(C)c1=O` the lipid storage change, negative = inhibition was inconclusive: -40.7%. In the case of `O=C(/C=C(/c1ccc(Cl)cc1)n1cncn1)c1ccccc1`, the Potency is reported as inconclusive: 6.51 µM [activator, partial curve]. In the case of `Cc1ccc(NC(=O)COC(=O)/C=C/c2ccccc2)cc1S(=O)(=O)N1CCOCC1`, the lipid storage change, negative = inhibition is reported as inconclusive: 13.6%. In the case of `O=C(c1ccc(F)cc1)C1CCN(C(=O)Nc2ccc(F)cc2F)CC1`, the “lipid storage change, negative = inhibition” value is reported as inactive: 12.9%. With `CCN(CC)S(=O)(=O)c1cc(NC(=O)C2CSC3(C)CCC(=O)N23)ccc1C` (stereo not given) the lipid storage change, negative = inhibition was inconclusive: -7.56%. With `COc1ccc(C)cc1NC(=O)CSc1nc2ccccc2nc1N1CCCCC1` the Potency was inconclusive: 2.31 µM [activator, full curve]. For `O=C(CCc1nc(-c2ccccc2Cl)no1)NCCc1ccccc1`, the lipid storage change, negative = inhibition was inconclusive: -54.4%. For `COc1ccccc1CNC(=O)COC(=O)Cc1cccc(F)c1`, the lipid storage change, negative = inhibition was inconclusive: 4.61%. For `CCCN1C=CC(=C2C(=O)c3ccccc3C2=O)C=C1`, the lipid storage change, negative = inhibition was inconclusive: -21.6%. In the case of `O=C(O)c1cc([N+](=O)[O-])cc2c1nnn2O`, the Potency is reported as inconclusive: 3.26 µM [falling, single point]. For `CC(C)Cn1c(SCC(=O)c2ccc(Cl)s2)nnc1-c1ccco1`, the lipid storage change, negative = inhibition was inconclusive: -27.2%. In the case of `CCOC(=O)c1c2ccccc2[n+]([O-])n1[C@@H](C)C(N)=O`, the Potency is reported as inconclusive: 0.058 µM [activator, full curve, poor fit]. With `CCCCCCSc1cc(-c2nc3cc(C)ccn3c2NC2CCCCC2)ccc1OC` the Potency was inconclusive: 18.4 µM [falling, single point]. For `N#CCC(=O)Nc1ccc(C(=O)NNC(=O)c2ccccc2-n2cccc2)cc1`, the Potency was inconclusive: 23.1 µM [falling, single point]. In the case of `O=C(COC(=O)C1CC1)Nc1ccc(N=Nc2ccccc2)cc1`, the lipid storage change, negative = inhibition is reported as inconclusive: -0.783%. In the case of `CCC(C)NCC(O)COCc1ccc(Cl)cc1` (stereo not given), the lipid storage change, negative = inhibition is reported as inconclusive: -26.9%. In the case of `CCCS(=O)(=O)N1CCC(C(=O)NCC2CCCO2)CC1` (stereo not given), the “outcome” value is reported as “inactive [at 46.1 µM]”. For `Cc1cccc(NC(=O)CCNS(=O)(=O)c2ccc(Cl)cc2)c1`, the lipid storage change, negative = inhibition was inconclusive: 24%. For `COc1nc(N(C)S(=O)(=O)c2ccc(C)cc2)nc(C)c1Br`, the lipid storage change, negative = inhibition was inconclusive: -1.8%. In the case of `COc1ccc(NS(=O)(=O)c2ccc3c(c2)NC(=O)CO3)c(OC)c1`, the lipid storage change, negative = inhibition is reported as inconclusive: -100%. With `CCCCC(=O)Nc1ccc(C(=O)c2ccccc2)cc1` the lipid storage change, negative = inhibition was inconclusive: -6.95%. With `CCC(=O)NC(=S)Nc1ccccc1C(=O)NC1CCCCC1` the lipid storage change, negative = inhibition was inconclusive: 2.41%. With `Cc1ccc(C)c(OCc2nc(-c3cccnc3)no2)c1` the Potency was inconclusive: 25.9 µM [falling, partial curve, poor fit]. In the case of `Cc1c(CN2CCC(C(=O)Nc3cccc(-c4cccc(Cl)c4)c3)CC2)cnn1C`, the Potency is reported as inconclusive: 6.51 µM [activator, single point]. For `Cc1ccc(C)c(N(Cc2ccccc2F)S(C)(=O)=O)c1`, the lipid storage change, negative = inhibition was inconclusive: -38.4%. For `COc1ccc(Cc2c(O)nc(SCC(=O)NC(C)(C)C)[nH]c2=O)cc1`, the lipid storage change, negative = inhibition was inconclusive: -26.6%. In the case of `COc1ccc(C(=O)NCC2OCCc3ccccc32)cc1OC` (stereo not given), the lipid storage change, negative = inhibition is reported as inconclusive: 7.83%. With `COc1ccc(S(=O)(=O)N[C@@H](Cc2ccccc2)C(=O)N2CC[C@@]3(O)CCCC[C@H]3C2)cc1` the lipid storage change, negative = inhibition was inconclusive: 13.9%. In the case of `O=C(OCC(=O)c1c[nH]c2ccccc12)c1ccc([N+](=O)[O-])s1`, the lipid storage change, negative = inhibition is reported as inconclusive: -36.2%. In the case of `CC(OC(=O)c1ccc(-n2cnnn2)cc1)C(=O)NCc1ccccc1` (stereo not given), the lipid storage change, negative = inhibition is reported as “inconclusive”. With `COc1cccc(C2C(C(=O)Nc3ccc(C)cc3C)=C(C)Nc3ncnn32)c1OC` (stereo not given) the lipid storage change, negative = inhibition was inconclusive: 23%. In the case of `CN(C)CCCN(C(=O)c1ccc(S(=O)(=O)N(C)C)cc1)c1nc2ccc(F)cc2s1`, the Potency is reported as inconclusive: 4.61 µM [falling, single point]. With `CN(c1ccccc1)S(=O)(=O)c1ccc(Cl)c(C(=O)NCc2ccccc2CN2CCCC2)c1` the lipid storage change, negative = inhibition was inconclusive: -55.8%. In the case of `CCOc1cc(S(=O)(=O)Nc2ccncc2)ccc1F`, the Potency is reported as inconclusive: 5.17 µM [falling, partial curve]. For `COc1cccc(-n2c(=O)c3c(C)c(C(=O)N(C)C)sc3n(CC(=O)NCCc3ccc(OC)c(OC)c3)c2=O)c1`, the lipid storage change, negative = inhibition was inconclusive: -36.6%. With `COc1cc2c(cc1OC)C(c1ccc(C)cc1)NC(=O)C2` (stereo not given) the “outcome” value was “inactive [at 46.1 µM]”. For `O=C(CSc1ccccn1)Nc1ccc(NC(=O)CSc2ccccn2)cc1`, the lipid storage change, negative = inhibition was inconclusive: -11%. For `Cc1oc2nc(SCCCC(=O)NCCCO)nc(N)c2c1C`, the Potency was inconclusive: 2.06 µM [rising, partial curve]. For `CCOc1ccc(NC(=O)CN(C)CC(=O)Nc2ccc(F)c(F)c2F)cc1OCC`, the lipid storage change, negative = inhibition was inconclusive: 5.5%. For `OCc1ccc(-c2nn(Cc3ccccc3)c3ccccc23)o1`, the lipid storage change, negative = inhibition was inconclusive: 24.9%. With `NC(=O)c1cccnc1` the lipid storage change, negative = inhibition was inconclusive: -17%. With `Cc1cc(C(=O)N2CCN(C(c3ccccc3)c3ccccc3)CC2)no1` the lipid storage change, negative = inhibition was inconclusive: 39.3%. In the case of `O=C(Cc1cccc(F)c1)N1CCCC(CO)(Cc2ccc(F)cc2F)C1` (stereo not given), the “lipid storage change, negative = inhibition” value is reported as inactive: 18.2%. In the case of `CC1CCCN(Cc2c(O)ccc3c(=O)c(-c4nc5ccccc5s4)c(N)oc23)C1` (stereo not given), the lipid storage change, negative = inhibition is reported as inconclusive: -23.8%. In the case of `Cc1nnc(NC(=O)CSc2ncc(-c3ccccc3)[nH]2)s1`, the lipid storage change, negative = inhibition is reported as inconclusive: 20%. In the case of `CN(CC(=O)Nc1ccccc1Cl)C(=O)COC(=O)c1nc(Cl)ccc1Cl`, the lipid storage change, negative = inhibition is reported as inconclusive: 24.5%. For `COc1cccc(NC(=O)CCNS(=O)(=O)c2ccc(Br)s2)c1`, the lipid storage change, negative = inhibition was inconclusive: -12.6%. For `Cc1nn(-c2ccccc2)c(Cl)c1/C=C(\C#N)C(=O)NC(C)C`, the lipid storage change, negative = inhibition was inconclusive: -72.4%. In the case of `CC(C)C(C)NC(=O)COC(=O)c1cccc(C(=O)OCC(=O)NC(C)C(C)C)n1` (stereo not given), the Potency is reported as inconclusive: 23.1 µM [falling, single point]. In the case of `Cc1ccc(N2CC(C(=O)N/N=C/c3c(F)cccc3Cl)CC2=O)cc1` (stereo not given), the lipid storage change, negative = inhibition is reported as inconclusive: 12.9%. In the case of `COc1cc(CNc2ccccc2)c([N+](=O)[O-])cc1OC`, the Potency is reported as inconclusive: 1.84 µM [falling, partial curve]. In the case of `COc1ccccc1-n1cc(CN2CCCC(CO)(Cc3cccc(Cl)c3)C2)cn1` (stereo not given), the lipid storage change, negative = inhibition is reported as inconclusive: -0.292%. In the case of `CCN(CCN1CCCC1)C(=O)C1CCC(=O)N(CCCN2CCOCC2)C1` (stereo not given), the lipid storage change, negative = inhibition is reported as inconclusive: -32.5%. In the case of `CCOC(=O)NCc1ccc(CNC(=O)OCC)cc1`, the lipid storage change, negative = inhibition is reported as inconclusive: 38.5%. With `CC1=CC(C)C2C(=O)N(c3ccccc3)C(=O)C2C1` (stereo not given) the Potency was inconclusive: 0.731 µM [falling, full curve].
